Values from PubChem BioAssay AID602196 (INSERM, 2012)
Screen: 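Knock-downs that protect lung cancer cells from cisplatin or sensitise them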. System: human A549 lung cancer cells. Reagent: siRNA pair against human genes. Time to read-out: 48 h transfection before cisplatin; time from cisplatin to read-out not stated. Treatment: cisplatin at a dose killing half of control-siRNA cells; exact dose and duration not given. Read-out: 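Shift in cisplatin death relative to control siRNA, from -50 (all cells die) to +50 (no cells die); siRNAs harmful on their own scored 0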. Reading the numbers: two-siRNA summed score (-2 to +2): higher = both siRNAs protect from cisplatin killing; -2 means both sensitise; mean protection from cisplatin (shift in death) and protection from cisplatin (shift in death), siRNA C and protection from cisplatin (shift in death), siRNA D: higher = protection from cisplatin killing. Active means: 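Each siRNA scores 0 if harmful alone by LDH or WST-1, otherwise +1 if it reduces and -1 if it increases cisplatin killing; a gene is active when both siRNAs agree (sum +2 or -2)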. Calls: active = both siRNAs shift cisplatin killing the same way; inactive = no consistent shift, or siRNA harmful alone.
The whole screen tested about 23,000 reagents; below is a random part of them. Over the whole deposit, 455 (2%) were called active. 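Active includes both protection and sensitisation; some change values fall well beyond the stated -50 to +50 range.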 Unmarked entries are inactive. Reagent sequences are not shown. The record does not give: the amount of reagent.

target gene	two-siRNA summed score (-2 to +2)	mean protection from cisplatin (shift in death) (%)	protection from cisplatin (shift in death), siRNA C (%)	protection from cisplatin (shift in death), siRNA D (%)
CREB3L2	0	4.3	1.6	6.9
H1-9P	0	3.7	12.7	-5.3
TUSC1	0	15.3	15.8	14.8
ZBTB22	1	7.7	14.1	1.3
LOC388714	0	13.6	8.7	18.6
TFCP2	0	2.5	0.1	4.9
CRYBG2	0	13.5	27.2	-0.3
LRRC74A	0	3.4	-0.3	7.2
WDR31	0	7	11.4	2.7
LOC440843	0	15.5	26.1	4.9
ANOS1	1	14.4	15.6	13.2
LOC345711	0	4.7	4.2	5.2
RTCB	0	2.2	0.3	4.1
POLA1	0	-24.8	-21.4	-28.2
FXYD7	0	4.5	-9.8	18.9
LOC116068	0	14.2	15.6	12.9
PBX2	1	11.4	22.2	0.7
LOC388924	1	13.9	22.5	5.3
SLC43A1	0	11.1	11.1	11
EPM2A	-2 (active)	-16.6	-14.3	-18.8
RNASEK	0	0.9	-5.1	6.9
EFHC2	0	-3.6	-7	-0.2
LOC440065	1	28.2	16.7	39.7
JAM2	-1	-20.9	-15.6	-26.1
ECH1	2 (active)	22.6	16.1	29.1
SHISA4	0	9.8	18.1	1.4
GCK	0	2.3	2.5	2.1
YWHAEP7	0	5.9	2.5	9.3
CXCL8	0	-1.8	-3.8	0.3
DECR1	0	3.1	0.9	5.4
CFAP100	0	-3.7	2.9	-10.4
SEC22C	0	1.4	-7.3	10
SPTSSA	1	7.8	-5.8	21.5
LOC158104	0	15.4	-3.4	34.3
STOX2	0	8.3	7	9.6
LIF	0	5.8	7	4.5
LINC01104	0	4.7	9.3	0.2
ACTN2	1	8.5	3.9	13.1
SERGEF	0	2.1	6.2	-1.9

Reformatted: results already given.
target gene,two-siRNA summed score (-2 to +2),mean protection from cisplatin (shift in death) (%),"protection from cisplatin (shift in death), siRNA C (%)","protection from cisplatin (shift in death), siRNA D (%)"
SLC43A1,0,11.1,11.1,11
EPM2A,-2 (active),-16.6,-14.3,-18.8
RNASEK,0,0.9,-5.1,6.9
EFHC2,0,-3.6,-7,-0.2
LOC440065,1,28.2,16.7,39.7
